According to patent US20210301003A1 (Eli Lilly, published 2021):
These are yes or no findings as the source states them, for the method shown. Some binding calls cover weakened binding; strength is not graded here.

Sequences of proteins named here, by UniProt entry; tags and fusion partners are left off. A change or cut given only in a name is not applied to a line headed by its entry. A line that says so, or that is headed by a name, gives the form on record, which may keep a tag or linker.
aggregated tau in FFPE brain sections of an AD patient (P10636, form named): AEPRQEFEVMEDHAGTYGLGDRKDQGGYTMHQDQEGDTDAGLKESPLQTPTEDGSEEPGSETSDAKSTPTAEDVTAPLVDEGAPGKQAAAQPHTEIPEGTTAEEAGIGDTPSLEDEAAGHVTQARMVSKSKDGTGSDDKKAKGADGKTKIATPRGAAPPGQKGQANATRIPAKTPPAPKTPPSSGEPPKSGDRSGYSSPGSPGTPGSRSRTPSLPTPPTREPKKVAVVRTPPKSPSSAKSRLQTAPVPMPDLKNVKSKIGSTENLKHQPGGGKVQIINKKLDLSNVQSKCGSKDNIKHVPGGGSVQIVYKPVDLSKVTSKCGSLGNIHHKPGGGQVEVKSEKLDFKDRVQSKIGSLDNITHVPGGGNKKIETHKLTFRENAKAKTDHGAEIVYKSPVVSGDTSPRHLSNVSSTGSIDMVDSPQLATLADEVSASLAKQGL
aggregated tau in FFPE brain sections of a PD (Pick's disease) patient (P10636, form named): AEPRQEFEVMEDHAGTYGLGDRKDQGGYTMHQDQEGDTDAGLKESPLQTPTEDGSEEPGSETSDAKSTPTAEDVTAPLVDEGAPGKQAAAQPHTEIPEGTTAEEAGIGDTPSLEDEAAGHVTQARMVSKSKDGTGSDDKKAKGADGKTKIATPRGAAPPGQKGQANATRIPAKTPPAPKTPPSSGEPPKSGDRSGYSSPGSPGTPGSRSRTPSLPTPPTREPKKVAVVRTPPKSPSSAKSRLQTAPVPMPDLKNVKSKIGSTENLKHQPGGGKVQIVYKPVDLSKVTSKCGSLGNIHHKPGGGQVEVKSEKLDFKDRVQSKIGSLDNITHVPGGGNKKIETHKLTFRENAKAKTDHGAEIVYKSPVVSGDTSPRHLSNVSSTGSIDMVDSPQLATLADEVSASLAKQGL

Key:
[1] = target: tau fibrils purified from AD brain homogenates (human) (UniProt P10636); experiment: ELISA on plates coated with tau fibrils purified from AD brain
[2] = target: aggregated tau in FFPE brain sections of a PD (Pick's disease) patient (human) (UniProt P10636); experiment: immunohistochemistry on FFPE brain sections, semi-quantitative score (severe, +++)
[3] = target: aggregated tau in FFPE brain sections of an AD patient (human) (UniProt P10636); experiment: as above
[4] = target: aggregated tau in FFPE brain sections of a normal individual (minimal tau aggregation) (human) (UniProt P10636); experiment: immunohistochemistry on FFPE brain sections, semi-quantitative score (mild, +)
[5] = target: aggregated tau in FFPE brain sections of a PD (Pick's disease) patient (human) (UniProt P10636); experiment: immunohistochemistry on FFPE brain sections
[6] = target: aggregated tau in FFPE brain sections of an AD patient (human) (UniProt P10636); experiment: immunohistochemistry on FFPE brain sections

Measured: binding

B1: Exemplified anti-Tau antibody (having both HCs of SEQ ID NO. 68 and both LCs of SEQ ID NO. 67) (antibody, human IgG4 S228P, kappa, F234A L235A, V domains shown)
VH: EVQLVQSGAEVKKPGESLKISCKGSGYTFSNYWIEWVRQMPGKGLEWMGEILPGSDSIKYEKNFKGQVTISADKSISTAYLQWSSLKASDTAMYYCARRGNYVDDWGQGTLVTVSS
VL: EIVLTQSPGTLSLSPGERATLSCRSSQSLVHSNQNTYLHWYQQKPGQAPRLLIYKVDNRFSGIPDRFSGSGSGTDFTLTISRLEPEDFAVYYCSQSTLVPLTFGGGTKVEIKR
binds: all assays above
